Structures can show the parent of a compound that is named as a salt. Some of the results follow. The calls rarely recur for the same compound in another form.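 Kinases were expressed as nanoluciferase fusions in K562 cells and luminescence was read every 4 h between 2 and 18 h as percent of control, DMSO set to 100% and a positive control to 0%. A time point counts as decreased when the signal drops significantly (2 sigma). The hit call is the authors' own, does not follow from the count of time points alone, and its rule is not shown.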
Columns and labels:
Test in all cases: number of time points (of 5) at which kinase-Nluc abundance scored as decreased, DMSO-normalised (count); higher = more persistent destabilization
Conditions in all cases: K562; 2-18 h
NTRK3 = NTRK3 (UniProt Q16288)
PAK4 = PAK4 (UniProt O96013)
PBK = PBK (UniProt Q96KB5)
PDGFRB = PDGFRB (UniProt P09619)
PDK1 = PDK1 (UniProt Q15118)
PDPK1 = PDPK1 (UniProt O15530)
PIK4CA = PIK4CA (UniProt P42356)
PIK4CB = PIK4CB (UniProt Q9UBF8)
PLK1 = PLK1 (UniProt P53350)
PRKAA1 = PRKAA1 (UniProt Q13131)

Sequences of proteins named here, by UniProt entry; tags and fusion partners are left off. A change or cut given only in a name is not applied to a line headed by its entry.
UniProt Q16288, whole entry, looked up: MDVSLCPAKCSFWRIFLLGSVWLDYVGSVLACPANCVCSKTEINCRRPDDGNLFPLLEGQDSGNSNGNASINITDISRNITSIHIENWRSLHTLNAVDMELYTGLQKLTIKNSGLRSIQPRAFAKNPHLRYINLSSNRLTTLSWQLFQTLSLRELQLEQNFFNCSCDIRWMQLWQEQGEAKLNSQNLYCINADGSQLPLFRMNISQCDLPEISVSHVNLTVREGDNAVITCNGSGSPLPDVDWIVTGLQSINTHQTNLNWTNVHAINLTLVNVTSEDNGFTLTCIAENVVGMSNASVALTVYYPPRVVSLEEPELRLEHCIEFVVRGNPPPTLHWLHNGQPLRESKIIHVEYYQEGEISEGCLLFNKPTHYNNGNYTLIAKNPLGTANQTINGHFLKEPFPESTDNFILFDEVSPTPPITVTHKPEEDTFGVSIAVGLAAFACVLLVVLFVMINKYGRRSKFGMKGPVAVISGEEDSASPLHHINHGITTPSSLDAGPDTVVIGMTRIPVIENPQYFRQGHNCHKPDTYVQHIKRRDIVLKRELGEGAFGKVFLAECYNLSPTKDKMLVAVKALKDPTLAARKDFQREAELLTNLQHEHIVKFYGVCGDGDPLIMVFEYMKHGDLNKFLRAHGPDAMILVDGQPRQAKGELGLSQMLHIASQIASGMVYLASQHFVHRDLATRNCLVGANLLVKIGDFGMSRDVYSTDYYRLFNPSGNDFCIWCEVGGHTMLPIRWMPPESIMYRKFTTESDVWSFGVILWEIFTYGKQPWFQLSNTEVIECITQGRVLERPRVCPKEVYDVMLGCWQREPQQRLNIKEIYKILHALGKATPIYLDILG
UniProt O96013: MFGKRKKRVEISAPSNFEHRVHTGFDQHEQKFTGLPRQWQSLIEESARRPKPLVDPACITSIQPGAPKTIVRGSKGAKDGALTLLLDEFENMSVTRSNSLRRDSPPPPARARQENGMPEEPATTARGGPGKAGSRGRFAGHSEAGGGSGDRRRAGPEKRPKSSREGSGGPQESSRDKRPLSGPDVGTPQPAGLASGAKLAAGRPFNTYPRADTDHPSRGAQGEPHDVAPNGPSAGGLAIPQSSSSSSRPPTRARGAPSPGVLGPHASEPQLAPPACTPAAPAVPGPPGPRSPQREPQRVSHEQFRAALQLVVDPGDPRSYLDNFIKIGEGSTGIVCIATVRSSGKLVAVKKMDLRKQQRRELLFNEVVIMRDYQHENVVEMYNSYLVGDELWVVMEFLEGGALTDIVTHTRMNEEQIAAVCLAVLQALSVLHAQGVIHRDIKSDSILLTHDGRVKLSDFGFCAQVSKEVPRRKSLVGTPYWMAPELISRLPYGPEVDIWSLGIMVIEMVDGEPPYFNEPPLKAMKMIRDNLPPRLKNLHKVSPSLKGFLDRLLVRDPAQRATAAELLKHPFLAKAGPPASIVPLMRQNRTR
UniProt Q15118, whole entry, looked up: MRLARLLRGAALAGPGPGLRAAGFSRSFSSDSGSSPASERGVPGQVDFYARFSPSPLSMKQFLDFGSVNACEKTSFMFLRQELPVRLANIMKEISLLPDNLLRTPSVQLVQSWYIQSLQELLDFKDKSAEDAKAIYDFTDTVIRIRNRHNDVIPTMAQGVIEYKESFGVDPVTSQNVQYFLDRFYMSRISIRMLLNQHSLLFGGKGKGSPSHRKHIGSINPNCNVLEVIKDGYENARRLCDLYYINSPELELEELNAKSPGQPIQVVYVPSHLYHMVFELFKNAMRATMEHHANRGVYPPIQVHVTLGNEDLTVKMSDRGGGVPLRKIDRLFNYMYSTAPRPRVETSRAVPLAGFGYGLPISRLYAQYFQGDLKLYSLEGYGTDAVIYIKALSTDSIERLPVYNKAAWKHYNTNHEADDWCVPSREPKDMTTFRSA
UniProt O15530: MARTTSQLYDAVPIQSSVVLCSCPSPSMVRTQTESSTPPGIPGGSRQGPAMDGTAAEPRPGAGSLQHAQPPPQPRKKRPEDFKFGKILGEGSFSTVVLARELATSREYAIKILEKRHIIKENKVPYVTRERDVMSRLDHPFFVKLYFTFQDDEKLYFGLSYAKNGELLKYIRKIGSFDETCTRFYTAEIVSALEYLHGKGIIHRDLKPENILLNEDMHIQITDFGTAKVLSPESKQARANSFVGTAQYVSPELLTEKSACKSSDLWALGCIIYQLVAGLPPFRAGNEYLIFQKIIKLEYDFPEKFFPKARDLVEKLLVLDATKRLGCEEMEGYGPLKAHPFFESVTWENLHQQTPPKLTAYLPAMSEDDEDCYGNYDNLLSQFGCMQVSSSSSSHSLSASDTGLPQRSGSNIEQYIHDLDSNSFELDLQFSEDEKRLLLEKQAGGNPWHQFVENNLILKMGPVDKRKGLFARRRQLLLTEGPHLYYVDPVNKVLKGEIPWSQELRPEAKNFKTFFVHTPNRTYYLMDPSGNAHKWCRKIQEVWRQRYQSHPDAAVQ
UniProt P42356, whole entry, looked up: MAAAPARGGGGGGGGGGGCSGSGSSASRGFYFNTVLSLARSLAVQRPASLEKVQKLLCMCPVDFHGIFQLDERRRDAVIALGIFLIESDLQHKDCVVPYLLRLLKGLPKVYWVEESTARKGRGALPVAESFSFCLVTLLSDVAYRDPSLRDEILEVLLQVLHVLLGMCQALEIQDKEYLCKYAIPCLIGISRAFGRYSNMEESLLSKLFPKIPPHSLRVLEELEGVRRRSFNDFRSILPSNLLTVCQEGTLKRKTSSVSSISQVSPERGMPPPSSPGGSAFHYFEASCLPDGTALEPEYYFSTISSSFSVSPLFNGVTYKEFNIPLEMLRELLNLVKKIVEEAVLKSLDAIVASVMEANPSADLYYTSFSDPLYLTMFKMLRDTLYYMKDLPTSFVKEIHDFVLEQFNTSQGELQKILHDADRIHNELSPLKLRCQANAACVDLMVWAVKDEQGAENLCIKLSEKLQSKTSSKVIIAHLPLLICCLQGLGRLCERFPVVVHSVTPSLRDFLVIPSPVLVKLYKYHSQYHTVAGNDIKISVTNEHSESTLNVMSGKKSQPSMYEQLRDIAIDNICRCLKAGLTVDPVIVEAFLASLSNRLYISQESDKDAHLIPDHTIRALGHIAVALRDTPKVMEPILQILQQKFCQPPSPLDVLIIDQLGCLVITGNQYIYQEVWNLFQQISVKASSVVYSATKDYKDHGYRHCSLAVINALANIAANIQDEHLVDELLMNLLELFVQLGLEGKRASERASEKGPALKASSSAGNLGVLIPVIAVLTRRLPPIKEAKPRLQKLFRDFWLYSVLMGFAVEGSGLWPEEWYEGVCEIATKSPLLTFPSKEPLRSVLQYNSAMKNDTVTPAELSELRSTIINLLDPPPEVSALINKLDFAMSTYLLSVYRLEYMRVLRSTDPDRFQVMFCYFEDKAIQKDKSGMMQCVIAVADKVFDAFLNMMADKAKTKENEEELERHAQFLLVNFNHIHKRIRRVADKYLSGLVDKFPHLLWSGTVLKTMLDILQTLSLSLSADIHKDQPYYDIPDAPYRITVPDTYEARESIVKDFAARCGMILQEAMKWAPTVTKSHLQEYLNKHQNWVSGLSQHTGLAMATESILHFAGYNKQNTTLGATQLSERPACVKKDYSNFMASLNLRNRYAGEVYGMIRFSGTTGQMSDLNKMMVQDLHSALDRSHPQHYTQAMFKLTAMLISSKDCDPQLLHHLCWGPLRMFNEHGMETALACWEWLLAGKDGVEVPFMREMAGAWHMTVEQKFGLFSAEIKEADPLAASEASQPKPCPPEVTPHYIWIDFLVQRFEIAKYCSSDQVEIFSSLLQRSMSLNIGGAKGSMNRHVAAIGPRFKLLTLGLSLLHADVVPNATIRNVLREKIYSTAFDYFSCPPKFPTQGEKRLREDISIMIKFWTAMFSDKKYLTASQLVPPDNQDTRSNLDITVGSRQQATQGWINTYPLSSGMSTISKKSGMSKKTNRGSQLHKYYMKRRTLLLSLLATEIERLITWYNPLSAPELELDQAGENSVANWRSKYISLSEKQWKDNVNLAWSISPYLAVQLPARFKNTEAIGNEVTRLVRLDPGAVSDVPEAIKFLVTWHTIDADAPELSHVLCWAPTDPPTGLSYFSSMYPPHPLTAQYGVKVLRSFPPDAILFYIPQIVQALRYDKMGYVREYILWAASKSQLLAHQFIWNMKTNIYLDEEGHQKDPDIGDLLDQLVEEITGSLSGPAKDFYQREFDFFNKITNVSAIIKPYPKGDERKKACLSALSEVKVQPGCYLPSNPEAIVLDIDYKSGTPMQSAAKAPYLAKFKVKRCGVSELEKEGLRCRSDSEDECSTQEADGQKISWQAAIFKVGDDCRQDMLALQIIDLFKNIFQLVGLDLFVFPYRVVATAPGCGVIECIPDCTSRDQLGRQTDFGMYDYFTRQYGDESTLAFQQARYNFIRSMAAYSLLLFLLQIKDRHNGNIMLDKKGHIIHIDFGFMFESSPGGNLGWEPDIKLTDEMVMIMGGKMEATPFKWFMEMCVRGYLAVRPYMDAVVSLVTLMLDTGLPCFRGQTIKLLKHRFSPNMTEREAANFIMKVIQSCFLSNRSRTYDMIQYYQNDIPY
UniProt Q9UBF8: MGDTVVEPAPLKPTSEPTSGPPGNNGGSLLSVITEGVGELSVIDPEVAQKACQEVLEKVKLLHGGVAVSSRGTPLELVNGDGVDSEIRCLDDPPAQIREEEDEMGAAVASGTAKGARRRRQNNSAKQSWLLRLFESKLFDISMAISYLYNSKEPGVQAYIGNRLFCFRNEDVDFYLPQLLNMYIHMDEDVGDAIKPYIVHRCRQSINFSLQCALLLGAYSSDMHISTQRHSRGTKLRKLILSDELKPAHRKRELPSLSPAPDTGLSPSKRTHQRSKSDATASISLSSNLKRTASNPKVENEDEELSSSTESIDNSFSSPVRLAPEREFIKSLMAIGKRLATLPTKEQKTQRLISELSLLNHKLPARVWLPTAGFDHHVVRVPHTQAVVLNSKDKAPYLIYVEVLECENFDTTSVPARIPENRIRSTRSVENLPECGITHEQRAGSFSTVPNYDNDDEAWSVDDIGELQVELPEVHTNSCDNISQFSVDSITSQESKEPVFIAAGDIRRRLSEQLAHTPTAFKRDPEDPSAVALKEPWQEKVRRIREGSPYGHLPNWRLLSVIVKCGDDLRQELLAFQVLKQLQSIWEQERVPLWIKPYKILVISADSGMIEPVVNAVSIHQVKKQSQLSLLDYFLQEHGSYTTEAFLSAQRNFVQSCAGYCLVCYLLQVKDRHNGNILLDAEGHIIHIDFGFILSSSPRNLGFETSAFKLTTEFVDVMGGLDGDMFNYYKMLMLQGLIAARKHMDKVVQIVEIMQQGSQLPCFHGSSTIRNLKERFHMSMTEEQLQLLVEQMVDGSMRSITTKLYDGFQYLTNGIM
UniProt P53350, whole entry: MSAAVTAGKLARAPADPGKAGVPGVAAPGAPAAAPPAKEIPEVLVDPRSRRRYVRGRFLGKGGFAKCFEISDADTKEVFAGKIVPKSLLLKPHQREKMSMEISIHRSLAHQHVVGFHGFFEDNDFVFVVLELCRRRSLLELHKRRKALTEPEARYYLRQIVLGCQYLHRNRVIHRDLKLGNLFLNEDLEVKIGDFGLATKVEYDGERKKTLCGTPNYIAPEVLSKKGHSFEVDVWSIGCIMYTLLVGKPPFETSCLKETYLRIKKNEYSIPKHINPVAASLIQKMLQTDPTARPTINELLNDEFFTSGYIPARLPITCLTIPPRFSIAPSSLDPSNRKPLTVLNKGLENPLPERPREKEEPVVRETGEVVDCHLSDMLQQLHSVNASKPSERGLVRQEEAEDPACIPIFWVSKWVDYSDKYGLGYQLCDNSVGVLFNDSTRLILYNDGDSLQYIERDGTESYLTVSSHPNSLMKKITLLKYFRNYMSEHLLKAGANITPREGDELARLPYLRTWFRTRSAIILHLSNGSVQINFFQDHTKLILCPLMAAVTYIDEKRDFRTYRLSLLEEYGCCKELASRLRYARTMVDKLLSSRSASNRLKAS
UniProt Q13131: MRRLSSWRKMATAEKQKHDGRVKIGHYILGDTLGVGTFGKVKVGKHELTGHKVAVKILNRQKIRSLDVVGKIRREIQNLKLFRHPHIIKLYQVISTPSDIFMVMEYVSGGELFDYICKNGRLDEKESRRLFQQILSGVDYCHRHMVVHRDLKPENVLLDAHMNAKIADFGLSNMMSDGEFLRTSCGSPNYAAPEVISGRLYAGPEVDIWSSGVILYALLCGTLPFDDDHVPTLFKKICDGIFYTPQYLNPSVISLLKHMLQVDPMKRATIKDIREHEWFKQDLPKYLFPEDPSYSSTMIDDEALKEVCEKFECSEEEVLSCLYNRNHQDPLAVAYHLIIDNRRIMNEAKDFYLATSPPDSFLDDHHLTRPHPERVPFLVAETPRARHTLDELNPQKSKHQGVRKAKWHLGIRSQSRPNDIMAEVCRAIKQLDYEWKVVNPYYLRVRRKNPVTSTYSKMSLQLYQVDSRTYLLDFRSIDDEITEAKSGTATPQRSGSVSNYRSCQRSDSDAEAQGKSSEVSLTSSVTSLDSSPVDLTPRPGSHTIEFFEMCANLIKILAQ

Measured: number of time points

C[C@@H]1COC(Nc2ccc3ncnc(Nc4ccc(OCc5nccs5)c(Cl)c4)c3c2)=N1 [Varlitinib] (10 µM)
1: PRKAA1
0: all other assays above

COc1cc2nc(-c3cc(F)ccc3O)nc(N[C@@H]3CNC[C@H]3C(C)(C)O)c2cc1OC (2.5 µM)
0: all assays above

O=C(Nc1ccc(Cl)cc1)C1CN(C(=O)c2cccc(-c3ccco3)c2)CC(F)(F)C1 (configuration not stated) (2.5 µM)
0: all assays above

Cc1ncc(-c2cc(F)c(O)c(F)c2)cc1-c1cc(F)c(O)c(F)c1 (10 µM)
0: all assays above

CC(C)(Oc1ccc(Cl)cc1)C(=O)Nc1ccc(OCc2ccc(C#N)cc2)cc1 [AMPK activator 4] (10 µM)
0: all assays above

Cc1ccc(Nc2cc(N[C@@H]3CCCC[C@@H]3N)nnc2C(N)=O)nc1C (2 µM)
0: all assays above

O=[N+]([O-])c1ccc(-c2nc(-c3ccc(F)cc3)c(-c3ccncc3)[nH]2)cc1 (10 µM)
0: all assays above

COc1cc(Nc2ccnc3ccc(Br)cc23)cc(OC)c1OC (2.5 µM)
0: all assays above

CC(C)c1cc2c(c(O)c1O)[C@@]13CCCC(C)(C)[C@@H]1C[C@@H]2OC3=O [Carnosol] (2.5 µM)
0: all assays above

C=CC(=O)Nc1cccc(Oc2nc(Nc3ccc(N4CCN(C)CC4)cc3OC)ncc2Cl)c1 (10 µM)
0: all assays above

O=C(O)c1c[nH]c2cc(Cl)c(-c3ccc(C4(O)CCC4)cc3)cc12 (10 µM)
not listed: PRKAA1
0: all other assays above

Cn1cc(C2=C(c3ccc(Cl)cc3Cl)C(=O)NC2=O)c2ccccc21 (10 µM)
0: all assays above

CC(C)n1c(CO)nc2c(F)cc(-c3nc(Nc4ccc(CN5CCNCC5)cn4)ncc3F)cc21 (10 µM)
1: PLK1
2: PDPK1
0: PAK4 | PBK | PDK1
3: all other assays above

CS[C@@]1(C(=O)Nc2ccc3[nH]nc(-c4ccc(OC(C)C)nc4)c3c2)CCN(CC(=O)N2CC=C(c3ccc(-c4ncn(C)n4)cc3)CC2)C1 (2.5 µM)
0: all assays above

Oc1ccc(-c2cnc3ccc(NCc4ccco4)nn23)cc1 [IRAK inhibitor 2] (2.5 µM)
0: all assays above

CNCc1ccccc1Sc1cccc2ccccc12 [IFN alpha-IFNAR-IN-1 (hydrochloride)] (10 µM)
4: PDPK1
1: PDGFRB | PIK4CA | PIK4CB | PRKAA1
0: all other assays above

CC(C)(C)S(=O)(=O)c1cc2c(Nc3ccc4scnc4c3)ncnc2cc1OCCOP(=O)(O)O (2 µM)
0: all assays above

Nc1nccc(Oc2ccc3c(C(=O)Nc4cccc(C(F)(F)F)c4)cccc3c2)n1 (10 µM)
4: PDPK1 | PIK4CB
3: PIK4CA | PLK1
0: all other assays above

CN1C(=O)[C@@H](NC(=O)c2cc(Cc3ccccc3)on2)COc2ccccc21 (10 µM)
0: all assays above

COc1ccc(CCNCc2ccc(OCc3ccc(Cl)nc3)c(OC)c2)cc1OC [SBE13 (Hydrochloride)] (10 µM)
0: all assays above

CN(C)c1cc[n+](Cc2ccc(OCCOc3ccc(C[n+]4ccc(N(C)C)cc4)cc3)cc2)cc1 (10 µM)
0: all assays above

O=C1CCC(N2C(=O)c3cccc(OCCCCCOc4ccc(CC(=O)Nc5cc(C6CCC6)[nH]n5)cc4)c3C2=O)C(=O)N1 (configuration not stated) [PROTAC CDK9 Degrader-1] (10 µM)
0: all assays above

CC(=O)O/N=C1/C(c2c(O)[nH]c3cc(Br)ccc23)=Nc2ccccc21 [BIO-acetoxime] (10 µM)
0: all assays above

O=S(=O)(c1ccc(O)cc1O)N1Cc2cc(O)cc(O)c2C1 (10 µM)
0: all assays above

Cn1cnc2c(F)c(Nc3ccc(Br)cc3F)c(C(=O)NOCCO)cc21 [Binimetinib] (10 µM)
4: PDPK1
0: all other assays above

CCOc1cc(N2CCC(O)CC2)ccc1Nc1ncc2c(n1)N(C1CCCC1)CCC(=O)N2C (2.5 µM)
0: all assays above

CN(C[C@@H]1COCCO1)S(=O)(=O)Nc1ccc2ccc3ncc(-c4cnn(C)c4)cc3c(=O)c2c1 (2.5 µM)
0: all assays above

CO/N=C1/C(c2c(O)[nH]c3cc(Cl)c(Cl)cc23)=Nc2ccccc21 (10 µM)
0: all assays above

COc1ccc(CN2CCC(c3ccc4nc(C(=O)N5CCN(Cc6ccc(C(F)(F)F)cc6)CC5)[nH]c4c3)CC2)cn1 (2.5 µM)
1: NTRK3
not listed: PRKAA1
0: all other assays above

CCOC(=O)c1c(N2CCc3ccc(OC)cc3C2)oc(C=C2C=Nc3ncccc32)c1O (10 µM)
0: all assays above

C=CC(=O)Nc1cc(Nc2nccc(-c3cn(C)c4ccccc34)n2)c(OCC(F)(F)F)nc1N(C)CCNC [AST5902  (trimesylate)] (2.5 µM)
2: PLK1
0: all other assays above

CC(C)=CCC[C@](C)(O[C@@H]1O[C@H](CO[C@@H]2O[C@H](CO)[C@@H](O)[C@H](O)[C@H]2O)[C@@H](O)[C@H](O)[C@H]1O)[C@H]1CC[C@]2(C)[C@@H]1[C@H](O)C[C@@H]1[C@@]3(C)CC[C@H](O[C@@H]4O[C@H](CO)[C@@H](O)[C@H](O)[C@H]4O[C@@H]4O[C@H](CO)[C@@H](O)[C@H](O)[C@H]4O)C(C)(C)[C@@H]3CC[C@]12C [Ginsenoside Rb1] (10 µM)
not listed: PRKAA1
0: all other assays above

Cc1cc(N2CCOCC2)ccc1Nc1nc(NC2CCCCC2)c2[nH]cnc2n1 (10 µM)
0: all assays above

O=C(NCc1ccn[nH]1)c1cc([C@@H]2CCNC[C@H]2COc2ccc3c(c2)OCO3)ccc1F [GRK2-IN-1 (hydrochloride)] (10 µM)
0: all assays above

Nc1ccc(O)c(C(=O)O)c1 [5-Aminosalicylic Acid] (10 µM)
0: all assays above

Nc1ccc(-c2nc3ccc(-c4nc5ccc(N)cc5[nH]4)cc3[nH]2)cc1 (10 µM)
0: all assays above
